# Article PMC7862700
# Sequences of proteins named here, by UniProt entry; tags and fusion partners are left off. A change or cut given only in a name is not applied to a line headed by its entry.
# UniProt P50549: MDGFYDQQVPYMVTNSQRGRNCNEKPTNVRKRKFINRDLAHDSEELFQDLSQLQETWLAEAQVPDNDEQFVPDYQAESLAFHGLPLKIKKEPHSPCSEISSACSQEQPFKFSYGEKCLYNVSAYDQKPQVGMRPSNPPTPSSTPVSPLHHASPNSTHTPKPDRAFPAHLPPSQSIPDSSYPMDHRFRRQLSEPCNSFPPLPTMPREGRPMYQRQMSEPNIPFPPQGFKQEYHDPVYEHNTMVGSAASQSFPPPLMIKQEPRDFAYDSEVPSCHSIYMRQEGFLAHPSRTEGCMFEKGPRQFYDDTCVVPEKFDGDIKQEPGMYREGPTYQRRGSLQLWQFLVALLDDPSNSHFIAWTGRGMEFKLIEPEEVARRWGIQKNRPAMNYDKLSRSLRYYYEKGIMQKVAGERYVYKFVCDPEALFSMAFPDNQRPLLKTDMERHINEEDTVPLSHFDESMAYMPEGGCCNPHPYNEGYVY
# UniProt P32519: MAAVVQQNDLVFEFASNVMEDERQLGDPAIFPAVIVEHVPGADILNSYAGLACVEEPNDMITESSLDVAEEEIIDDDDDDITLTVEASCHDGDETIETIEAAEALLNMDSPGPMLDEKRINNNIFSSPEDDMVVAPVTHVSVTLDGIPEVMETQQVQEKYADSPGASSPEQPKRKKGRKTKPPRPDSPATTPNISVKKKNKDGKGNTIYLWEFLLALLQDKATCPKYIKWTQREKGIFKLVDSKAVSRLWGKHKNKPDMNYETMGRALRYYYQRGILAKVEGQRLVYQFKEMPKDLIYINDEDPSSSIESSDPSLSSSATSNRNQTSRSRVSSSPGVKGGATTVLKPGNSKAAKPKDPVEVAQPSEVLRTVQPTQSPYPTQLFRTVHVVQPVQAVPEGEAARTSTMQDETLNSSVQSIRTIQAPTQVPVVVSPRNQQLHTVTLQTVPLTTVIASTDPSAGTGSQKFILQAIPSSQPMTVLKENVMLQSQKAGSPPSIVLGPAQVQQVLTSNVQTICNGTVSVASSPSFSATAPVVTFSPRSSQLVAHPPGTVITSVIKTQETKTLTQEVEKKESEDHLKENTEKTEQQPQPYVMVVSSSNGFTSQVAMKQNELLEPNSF
# The list shows a part of the results, in another mix than the full data. For some assays here: At the low end of the ranking, values are background and their order means little. The list shows a part of the results. For some assays here: The exact form of the protein is not confirmed.
# Legend:
# Assay in all cases: DAPPL (digital affinity profiling via proximity ligation, sequencing)
# Conditions in all cases: 10 mM Tris-HCl pH 7.5, 50 mM NaCl, 1 mM DTT, 4% glycerol, room temperature, 30 min; GST-TFs on glutathione beads, 16-mer random dsDNA library, 0.1% …; high values mean tight binding; double strand, one strand shown; scale: fold enrichment (6-mer frequency, TF over GST control)
# [1] = biological target: T1, ETV4 (UniProt P43268)
# T1 sequence: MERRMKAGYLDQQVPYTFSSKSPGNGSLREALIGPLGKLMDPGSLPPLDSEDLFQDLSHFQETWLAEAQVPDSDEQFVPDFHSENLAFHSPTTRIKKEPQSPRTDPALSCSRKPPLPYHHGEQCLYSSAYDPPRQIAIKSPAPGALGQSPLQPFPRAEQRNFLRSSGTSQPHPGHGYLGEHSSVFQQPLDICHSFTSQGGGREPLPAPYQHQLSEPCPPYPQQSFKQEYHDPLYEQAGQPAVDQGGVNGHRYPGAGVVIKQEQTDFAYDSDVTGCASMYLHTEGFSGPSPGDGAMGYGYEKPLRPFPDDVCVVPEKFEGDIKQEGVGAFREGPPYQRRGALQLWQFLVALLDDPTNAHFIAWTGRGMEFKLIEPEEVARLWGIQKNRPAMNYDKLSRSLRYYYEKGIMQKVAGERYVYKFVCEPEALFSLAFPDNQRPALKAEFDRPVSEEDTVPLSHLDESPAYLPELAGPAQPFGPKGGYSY
# [2] = biological target: ETV1 (UniProt P50549)
# [3] = biological target: T2, ERG (UniProt P11308)
# T2 sequence: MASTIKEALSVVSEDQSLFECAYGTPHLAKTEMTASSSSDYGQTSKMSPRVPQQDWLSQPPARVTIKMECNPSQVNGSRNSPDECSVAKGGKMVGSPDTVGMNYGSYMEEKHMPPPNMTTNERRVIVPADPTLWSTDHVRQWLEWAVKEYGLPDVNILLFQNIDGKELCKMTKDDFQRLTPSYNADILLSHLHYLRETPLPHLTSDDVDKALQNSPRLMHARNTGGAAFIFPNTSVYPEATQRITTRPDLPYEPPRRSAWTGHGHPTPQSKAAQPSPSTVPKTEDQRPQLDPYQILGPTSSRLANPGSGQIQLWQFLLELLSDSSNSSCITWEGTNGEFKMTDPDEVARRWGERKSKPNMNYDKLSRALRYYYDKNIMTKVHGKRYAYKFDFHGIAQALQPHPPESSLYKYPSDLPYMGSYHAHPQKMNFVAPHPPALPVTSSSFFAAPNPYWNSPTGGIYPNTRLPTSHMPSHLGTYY
# [4] = biological target: ELF1 (UniProt P32519)
# [5] = biological target: T3, ERF (UniProt P50548)
# T3 sequence: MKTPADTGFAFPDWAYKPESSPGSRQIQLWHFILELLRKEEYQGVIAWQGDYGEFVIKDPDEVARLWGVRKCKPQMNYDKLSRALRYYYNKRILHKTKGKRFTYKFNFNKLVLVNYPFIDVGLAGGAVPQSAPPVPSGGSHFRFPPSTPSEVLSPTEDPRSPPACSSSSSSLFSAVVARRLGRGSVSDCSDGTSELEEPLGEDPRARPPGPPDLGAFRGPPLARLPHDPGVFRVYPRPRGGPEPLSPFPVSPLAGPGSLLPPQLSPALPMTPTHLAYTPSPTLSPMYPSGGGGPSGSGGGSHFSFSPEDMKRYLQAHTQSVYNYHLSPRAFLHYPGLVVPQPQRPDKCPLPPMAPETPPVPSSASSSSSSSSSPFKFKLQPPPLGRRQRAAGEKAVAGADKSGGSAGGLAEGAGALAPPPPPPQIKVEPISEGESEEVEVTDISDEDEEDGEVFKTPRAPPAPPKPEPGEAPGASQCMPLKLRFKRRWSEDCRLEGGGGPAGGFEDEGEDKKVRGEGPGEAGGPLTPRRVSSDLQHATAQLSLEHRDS
Sequence,binding signal [1],binding signal [2],binding signal [3],binding signal [4],binding signal [5]
ATACAA,1.19,1.13,,,
CTATAT,1.38,,1.34,1.5,
CCGGAA,5.75,6.04,,,
TTTATT,1.22,,1.26,1.19,
TTCCAG,1.12,,1,1.02,
GATGCC,1.37,1.36,,,
ATTTTT,1.06,,1.1,1.14,
GTTTCG,1.31,,1.25,1.27,
TTTCAG,1.28,,1.3,1.31,
TTTCTC,1.65,,1.54,1.62,
TCCGAC,1.46,,1.46,1.42,
AGGAAA,1.3,,1.62,1.27,1.34
AAGCAC,1.24,,1.19,1.18,
ACCTAC,1.26,1.23,,,
AAGTCA,1.19,,1.26,1.17,
TGCACG,1.12,,1.03,1.16,1.11

# Random excerpt: two entries already listed.
Sequence,binding signal [1],binding signal [2],binding signal [3],binding signal [4],binding signal [5]
TTTCTC,1.65,,1.54,1.62,
AAGTCA,1.19,,1.26,1.17,

# (further entries)

Sequence,binding signal [1],binding signal [2],binding signal [3],binding signal [4],binding signal [5]
ATCCTG,1.4,,1.62,1.36,
GTGGCT,1.18,,1.19,1.11,
TCACAG,1.04,,0.971,1.06,
AACTTA,1.24,1.22,,,
ATAATT,1.22,,1.4,1.27,
ACTGGC,1.17,,1.11,1.18,
ACACTT,1.86,1.77,,,
AAAAAG,1.22,,1.19,1.13,
CAGGAT,1.22,,1.2,1.14,
CACTTC,4.07,,4.19,3.41,
CGACCC,1.32,,1.22,1.26,1.36
GAAATC,1.4,,1.65,1.36,1.31
TGCCCG,1.11,,1.19,1.2,
ATGCAA,1.24,,1.29,1.25,1.23
CCGCCC,1.31,,1.29,1.35,
